Reference: article doi:10.1101/2022.08.01.502314
No constants are given. Whether binding was seen depends on the method and setting. In cells and extracts the contact can be indirect. Some results given as binding are weak or reduced against the parent protein; the word gives no strength.

Chains of the proteins cited; added tags and fusions are not shown. Lines headed by an entry give the natural chain unless they say otherwise; changes in a name come on top. A line that says so, or that is headed by a name, gives the form on record, which may keep a tag or linker.
UniProt Q15561: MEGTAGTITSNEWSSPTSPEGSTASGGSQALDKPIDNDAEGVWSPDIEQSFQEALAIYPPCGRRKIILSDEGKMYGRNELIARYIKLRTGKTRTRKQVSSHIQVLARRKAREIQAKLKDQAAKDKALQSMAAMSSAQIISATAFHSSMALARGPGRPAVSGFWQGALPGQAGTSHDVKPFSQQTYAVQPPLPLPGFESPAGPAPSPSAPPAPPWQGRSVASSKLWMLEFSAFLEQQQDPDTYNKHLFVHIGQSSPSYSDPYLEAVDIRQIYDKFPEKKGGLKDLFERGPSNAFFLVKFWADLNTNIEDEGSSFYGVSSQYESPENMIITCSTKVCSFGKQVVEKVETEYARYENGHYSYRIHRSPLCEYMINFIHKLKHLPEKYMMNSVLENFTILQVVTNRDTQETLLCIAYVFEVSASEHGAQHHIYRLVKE
UniProt P28347: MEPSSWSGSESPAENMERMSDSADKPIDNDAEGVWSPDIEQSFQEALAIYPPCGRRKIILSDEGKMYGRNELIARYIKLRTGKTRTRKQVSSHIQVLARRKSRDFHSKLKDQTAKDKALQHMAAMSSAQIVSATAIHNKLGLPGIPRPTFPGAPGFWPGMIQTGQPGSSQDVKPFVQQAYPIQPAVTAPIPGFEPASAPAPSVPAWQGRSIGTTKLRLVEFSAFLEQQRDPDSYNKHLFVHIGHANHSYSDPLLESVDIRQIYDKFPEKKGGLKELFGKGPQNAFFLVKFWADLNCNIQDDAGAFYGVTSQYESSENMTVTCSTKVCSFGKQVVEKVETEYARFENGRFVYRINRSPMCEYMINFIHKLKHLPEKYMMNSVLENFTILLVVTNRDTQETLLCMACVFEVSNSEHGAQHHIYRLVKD
UniProt P10275: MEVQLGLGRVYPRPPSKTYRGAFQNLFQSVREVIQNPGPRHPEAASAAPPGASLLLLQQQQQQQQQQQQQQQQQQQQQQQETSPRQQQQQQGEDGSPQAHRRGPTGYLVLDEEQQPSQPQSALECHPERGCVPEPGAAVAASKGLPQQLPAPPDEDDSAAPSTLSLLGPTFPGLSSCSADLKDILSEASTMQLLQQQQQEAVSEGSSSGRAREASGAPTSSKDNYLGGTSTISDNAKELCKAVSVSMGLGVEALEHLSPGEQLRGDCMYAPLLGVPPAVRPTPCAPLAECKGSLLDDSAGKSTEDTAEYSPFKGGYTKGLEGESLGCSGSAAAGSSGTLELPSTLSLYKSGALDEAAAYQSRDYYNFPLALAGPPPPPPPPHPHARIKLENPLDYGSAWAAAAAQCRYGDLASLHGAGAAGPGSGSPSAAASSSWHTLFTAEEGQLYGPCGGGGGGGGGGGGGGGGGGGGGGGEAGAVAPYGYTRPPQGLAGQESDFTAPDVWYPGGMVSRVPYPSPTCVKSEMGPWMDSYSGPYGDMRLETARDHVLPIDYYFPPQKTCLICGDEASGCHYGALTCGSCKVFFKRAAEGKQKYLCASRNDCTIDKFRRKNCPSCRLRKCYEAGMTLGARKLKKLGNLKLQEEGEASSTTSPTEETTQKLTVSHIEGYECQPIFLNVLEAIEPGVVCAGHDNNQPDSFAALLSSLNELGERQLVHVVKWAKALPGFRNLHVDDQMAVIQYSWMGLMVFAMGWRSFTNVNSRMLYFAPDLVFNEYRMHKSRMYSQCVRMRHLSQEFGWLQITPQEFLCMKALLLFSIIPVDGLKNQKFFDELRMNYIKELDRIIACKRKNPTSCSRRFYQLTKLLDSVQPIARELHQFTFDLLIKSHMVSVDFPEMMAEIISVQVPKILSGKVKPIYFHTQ
AR splicing variant V7 (AR_V7) expressed in HEK-293T cells (P10275-3, form named): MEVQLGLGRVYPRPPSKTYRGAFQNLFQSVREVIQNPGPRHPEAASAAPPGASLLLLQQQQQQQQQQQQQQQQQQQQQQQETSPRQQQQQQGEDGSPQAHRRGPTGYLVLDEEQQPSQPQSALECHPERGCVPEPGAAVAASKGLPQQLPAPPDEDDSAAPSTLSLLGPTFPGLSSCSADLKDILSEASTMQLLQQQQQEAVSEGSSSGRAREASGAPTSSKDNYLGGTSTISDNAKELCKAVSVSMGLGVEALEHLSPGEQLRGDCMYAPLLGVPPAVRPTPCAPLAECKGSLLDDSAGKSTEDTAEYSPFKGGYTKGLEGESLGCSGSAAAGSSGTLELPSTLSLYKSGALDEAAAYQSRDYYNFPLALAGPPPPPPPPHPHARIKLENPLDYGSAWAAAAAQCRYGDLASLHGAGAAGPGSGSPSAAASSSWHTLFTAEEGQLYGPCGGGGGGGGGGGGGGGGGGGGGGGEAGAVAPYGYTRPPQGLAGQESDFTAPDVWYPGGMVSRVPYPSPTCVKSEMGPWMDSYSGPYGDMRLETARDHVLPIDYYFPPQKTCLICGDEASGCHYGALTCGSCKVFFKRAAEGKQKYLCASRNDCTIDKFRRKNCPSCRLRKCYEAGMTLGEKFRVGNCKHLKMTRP

Key:
[1] = molecular target: FLAG-tagged full-length TEAD4 expressed in HEK-293T cells (human) (UniProt Q15561); test: co-IP
[2] = molecular target: 3xFLAG-tagged TEAD1 expressed in HEK-293T cells (UniProt P28347); test: co-IP

| Substance | binding [1] | binding [2] |
| --- | --- | --- |
| epitope-tagged full-length AR (AR-FL) expressed in HEK-293T cells (from UniProt P10275 1-920) | binds | – |
| AR splicing variant V7 (AR_V7) expressed in HEK-293T cells (from UniProt P10275-3 1-644) | binds | binds |
